# According to the supplement of paper PMC8728848:
# The list shows a part of the results.
# How the values were obtained:
# Test in all cases: glycan array binding signal (z-score within array); higher = stronger binding
# Conditions in all cases: glycan notation: IUPAC condensed, linker removed; mutation: D21K
# Gal(b1-3)GalNAc(b1-3)Gal = target: Gal(b1-3)GalNAc(b1-3)Gal
# In short: (§1)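 Arrays were curated from the Consortium for Functional Glycomics database, 3228 in total, and kept only where the protein sequence was available. Binding is expressed as a within-array Z-score. This score was averaged across arrays of the same protein sequence at different concentrations or buffers and across linkers, and negative values can be read as non-binding.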
# [1] = target: Gal(b1-3)GalNAc(b1-3)Gal(a1-4)Gal(b1-4)Glc
# In short: as §1
# [2] = target: Gal(b1-3)GalNAc(b1-4)Gal(b1-4)Glc
# In short: as §1
# [3] = target: Gal(b1-3)GalNAc(b1-4)[Neu5Ac(a2-3)]Gal(b1-4)Glc
# In short: as §1
# Gal(b1-3)GlcNAc = target: Gal(b1-3)GlcNAc
# In short: as §1
# [4] = target: Gal(b1-3)GlcNAc(a1-3)Gal(b1-4)GlcNAc
# In short: as §1
# [5] = target: Gal(b1-3)GlcNAc(a1-6)Gal(b1-4)GlcNAc
# In short: as §1
# Gal(b1-3)GlcNAc(b1-2)Man = target: Gal(b1-3)GlcNAc(b1-2)Man
# In short: as §1
# [6] = target: Gal(b1-3)GlcNAc(b1-2)Man(a1-3)[Gal(b1-3)GlcNAc(b1-2)Man(a1-6)]Man(b1-4)GlcNAc(b1-4)GlcNAc
# In short: as §1
# [7] = target: Gal(b1-3)GlcNAc(b1-2)Man(a1-3)[Gal(b1-3)GlcNAc(b1-2)Man(a1-6)]Man(b1-4)GlcNAc(b1-4)[Fuc(a1-6)]GlcNAc
# In short: as §1
# [8] = target: Gal(b1-3)GlcNAc(b1-2)Man(a1-3)[GlcNAc(b1-4)][Gal(b1-3)GlcNAc(b1-2)Man(a1-6)]Man(b1-4)GlcNAc(b1-4)GlcNAc
# In short: as §1
# [9] = target: Gal(b1-3)GlcNAc(b1-2)[Gal(b1-3)GlcNAc(b1-6)]Man(a1-6)[Gal(b1-3)GlcNAc(b1-2)Man(a1-3)]Man(b1-4)GlcNAc(b1-4)GlcNAc
# In short: as §1
# [10] = target: Gal(b1-3)GlcNAc(b1-3)Gal(b1-3)GlcNAc
# In short: as §1
# [11] = target: Gal(b1-3)GlcNAc(b1-3)Gal(b1-4)Glc
# In short: as §1
# [12] = target: Gal(b1-3)GlcNAc(b1-3)Gal(b1-4)GlcNAc
# In short: as §1
# [13] = target: Gal(b1-3)GlcNAc(b1-3)Gal(b1-4)GlcNAc(b1-2)Man(a1-3)[Gal(b1-3)GlcNAc(b1-3)Gal(b1-4)GlcNAc(b1-2)Man(a1-6)]Man(b1-4)GlcNAc(b1-4)GlcNAc
# In short: as §1
# [14] = target: Gal(b1-3)GlcNAc(b1-3)Gal(b1-4)GlcNAc(b1-2)[Gal(b1-3)GlcNAc(b1-3)Gal(b1-4)GlcNAc(b1-6)]Man(a1-6)[Gal(b1-3)GlcNAc(b1-3)Gal(b1-4)GlcNAc(b1-2)Man(a1-3)]Man(b1-4)GlcNAc(b1-4)[Fuc(a1-6)]GlcNAc
# In short: as §1
# [15] = target: Gal(b1-3)GlcNAc(b1-3)Gal(b1-4)GlcNAc(b1-3)Gal(b1-4)GlcNAc(b1-2)[Gal(b1-3)GlcNAc(b1-3)Gal(b1-4)GlcNAc(b1-3)Gal(b1-4)GlcNAc(b1-6)]Man(a1-6)[Gal(b1-3)GlcNAc(b1-3)Gal(b1-4)GlcNAc(b1-3)Gal(b1-4)GlcNAc(b1-2)Man(a1-3)]Man(b1-4)GlcNAc(b1-4)[Fuc(a1-6)]GlcNAc
# In short: as §1
# [16] = target: Gal(b1-3)GlcNAc(b1-3)Gal(b1-4)GlcNAc(b1-6)[Gal(b1-3)GlcNAc(b1-3)]Gal(b1-4)Glc
# In short: as §1
# [17] = target: Gal(b1-3)GlcNAc(b1-3)Gal(b1-4)[Fuc(a1-3)]GlcNAc
# In short: as §1
# [18] = target: Gal(b1-3)GlcNAc(b1-3)Gal(b1-4)[Fuc(a1-3)]GlcNAc(b1-6)[Gal(b1-3)GlcNAc(b1-3)]Gal(b1-4)Glc
# In short: as §1
# [19] = target: Gal(b1-3)GlcNAc(b1-3)GalNAc
# In short: as §1
# [20] = target: Gal(b1-3)GlcNAc(b1-6)Gal(b1-4)GlcNAc
# In short: as §1
# [21] = target: Gal(b1-3)GlcNAc(b1-6)GalNAc
# In short: as §1
# [22] = target: Gal(b1-3)GlcNAc(b1-6)[Gal(b1-3)]GalNAc
# In short: as §1
# Gal(b1-3)GlcNAc6S = target: Gal(b1-3)GlcNAc6S
# In short: as §1
# [23] = target: Gal(b1-3)[Fuc(a1-4)]GlcNAc
# In short: as §1
# [24] = target: Gal(b1-3)[Fuc(a1-4)]GlcNAc(b1-2)Man
# In short: as §1
# [25] = target: Gal(b1-3)[Fuc(a1-4)]GlcNAc(b1-2)Man(a1-3)[Gal(b1-3)[Fuc(a1-4)]GlcNAc(b1-2)Man(a1-6)]Man(b1-4)GlcNAc(b1-4)[Fuc(a1-6)]GlcNAc
# In short: as §1
# [26] = target: Gal(b1-3)[Fuc(a1-4)]GlcNAc(b1-3)Gal(b1-3)[Fuc(a1-4)]GlcNAc
# In short: as §1
# [27] = target: Gal(b1-3)[Fuc(a1-4)]GlcNAc(b1-3)Gal(b1-4)[Fuc(a1-3)]GlcNAc
# In short: as §1
# [28] = target: Gal(b1-3)[Fuc(a1-4)]GlcNAc(b1-6)GalNAc
# In short: as §1
# [29] = target: Gal(b1-3)[GlcNAc(b1-6)]GalNAc
# In short: as §1
# [30] = target: Gal(b1-3)[Neu5Ac(a2-6)]GalNAc
# In short: as §1
# [31] = target: Gal(b1-3)[Neu5Ac(a2-6)]GlcNAc(b1-4)Gal(b1-4)Glc
# In short: as §1
# [32] = target: Gal(b1-3)[Neu5Ac(b2-6)]GalNAc
# In short: as §1
# Gal(b1-4)Gal = target: Gal(b1-4)Gal
# In short: as §1
# [33] = target: Gal(b1-4)GalNAc(a1-3)[Fuc(a1-2)]Gal(b1-4)GlcNAc
# In short: as §1
# [34] = target: Gal(b1-4)GalNAc(b1-3)[Fuc(a1-2)]Gal(b1-4)GlcNAc
# In short: as §1
# Gal(b1-4)Glc = target: Gal(b1-4)Glc
# In short: as §1
# Gal(b1-4)Glc6S = target: Gal(b1-4)Glc6S
# In short: as §1
# Gal(b1-4)GlcNAc = target: Gal(b1-4)GlcNAc
# In short: as §1
# [35] = target: Gal(b1-4)GlcNAc(a1-6)Gal(b1-4)GlcNAc
# In short: as §1
# Gal(b1-4)GlcNAc(b1-2)Man = target: Gal(b1-4)GlcNAc(b1-2)Man
# In short: as §1
# [36] = target: Gal(b1-4)GlcNAc(b1-2)Man(a1-3)Man(b1-4)GlcNAc(b1-4)GlcNAc
# In short: as §1
# [37] = target: Gal(b1-4)GlcNAc(b1-2)Man(a1-3)[Gal(b1-4)GlcNAc(b1-2)Man(a1-6)]Man(b1-4)GlcNAc(b1-4)GlcNAc
# In short: as §1
# [38] = target: Gal(b1-4)GlcNAc(b1-2)Man(a1-3)[Gal(b1-4)GlcNAc(b1-2)Man(a1-6)]Man(b1-4)GlcNAc(b1-4)[Fuc(a1-6)]GlcNAc
# In short: as §1
# [39] = target: Gal(b1-4)GlcNAc(b1-2)Man(a1-3)[Gal(b1-4)GlcNAc(b1-2)Man(a1-6)][Gal(b1-4)GlcNAc(b1-4)]Man(b1-4)GlcNAc(b1-4)[Fuc(a1-6)]GlcNAc
# In short: as §1
# [40] = target: Gal(b1-4)GlcNAc(b1-2)Man(a1-3)[Gal(b1-4)GlcNAc(b1-2)Man(a1-6)][GlcNAc(b1-4)]Man(b1-4)GlcNAc(b1-4)[Fuc(a1-6)]GlcNAc
# In short: as §1
# [41] = target: Gal(b1-4)GlcNAc(b1-2)Man(a1-3)[GlcNAc(b1-2)Man(a1-6)]Man(b1-4)GlcNAc(b1-4)GlcNAc
# In short: as §1
# [42] = target: Gal(b1-4)GlcNAc(b1-2)Man(a1-3)[GlcNAc(b1-4)][Gal(b1-4)GlcNAc(b1-2)Man(a1-6)]Man(b1-4)GlcNAc(b1-4)GlcNAc
# In short: as §1
# [43] = target: Gal(b1-4)GlcNAc(b1-2)Man(a1-3)[Man(a1-6)]Man(b1-4)GlcNAc(b1-4)GlcNAc
# In short: as §1
# [44] = target: Gal(b1-4)GlcNAc(b1-2)Man(a1-6)Man(b1-4)GlcNAc(b1-4)GlcNAc
# In short: as §1
binder,measurement,setting,value
KILRGVCKKIMRTFLRRISKKILTGKK [C7A (Sus scrofa)],glycan array binding signal (z-score),Gal(b1-3)GalNAc(b1-3)Gal,-1.18
same,glycan array binding signal (z-score),[1],2.25
same,glycan array binding signal (z-score),[2],1.03
same,glycan array binding signal (z-score),[3],0.649
same,glycan array binding signal (z-score),Gal(b1-3)GlcNAc,-1.43
same,glycan array binding signal (z-score),[4],0.316
same,glycan array binding signal (z-score),[5],0.584
same,glycan array binding signal (z-score),Gal(b1-3)GlcNAc(b1-2)Man,0.724
same,glycan array binding signal (z-score),[6],-0.232
same,glycan array binding signal (z-score),[7],0.303
same,glycan array binding signal (z-score),[8],0.213
same,glycan array binding signal (z-score),[9],-0.557
same,glycan array binding signal (z-score),[10],-0.8
same,glycan array binding signal (z-score),[11],-0.894
same,glycan array binding signal (z-score),[12],-1.13
same,glycan array binding signal (z-score),[13],-2.32
same,glycan array binding signal (z-score),[14],1.29
same,glycan array binding signal (z-score),[15],0.352
same,glycan array binding signal (z-score),[16],0.463
same,glycan array binding signal (z-score),[17],0.37
same,glycan array binding signal (z-score),[18],0.301
same,glycan array binding signal (z-score),[19],-0.918
same,glycan array binding signal (z-score),[20],0.668
same,glycan array binding signal (z-score),[21],-1.14
same,glycan array binding signal (z-score),[22],-0.196
same,glycan array binding signal (z-score),Gal(b1-3)GlcNAc6S,1.73
same,glycan array binding signal (z-score),[23],-0.073
same,glycan array binding signal (z-score),[24],0.249
same,glycan array binding signal (z-score),[25],-1.63
same,glycan array binding signal (z-score),[26],-0.712
same,glycan array binding signal (z-score),[27],-1.26
same,glycan array binding signal (z-score),[28],-0.177
same,glycan array binding signal (z-score),[29],-0.867
same,glycan array binding signal (z-score),[30],-0.301
same,glycan array binding signal (z-score),[31],0.817
same,glycan array binding signal (z-score),[32],-0.443
same,glycan array binding signal (z-score),Gal(b1-4)Gal,-0.595
same,glycan array binding signal (z-score),[33],-0.837
same,glycan array binding signal (z-score),[34],-1.14
same,glycan array binding signal (z-score),Gal(b1-4)Glc,-0.133
same,glycan array binding signal (z-score),Gal(b1-4)Glc6S,0.318
same,glycan array binding signal (z-score),Gal(b1-4)GlcNAc,-0.446
same,glycan array binding signal (z-score),[35],0.025
same,glycan array binding signal (z-score),Gal(b1-4)GlcNAc(b1-2)Man,-0.419
same,glycan array binding signal (z-score),[36],1.01
same,glycan array binding signal (z-score),[37],0.219
same,glycan array binding signal (z-score),[38],0.734
same,glycan array binding signal (z-score),[39],0.292
same,glycan array binding signal (z-score),[40],-0.177
same,glycan array binding signal (z-score),[41],-1.17
same,glycan array binding signal (z-score),[42],-0.5
same,glycan array binding signal (z-score),[43],1.46
same,glycan array binding signal (z-score),[44],-0.654

# Not a retest: entries from further up.
binder,measurement,setting,value
KILRGVCKKIMRTFLRRISKKILTGKK [C7A (Sus scrofa)],glycan array binding signal (z-score),[38],0.734
same,glycan array binding signal (z-score),[39],0.292
same,glycan array binding signal (z-score),[40],-0.177
same,glycan array binding signal (z-score),[41],-1.17
